Data published in patent US6902739B2, “Methods for treating joint inflammation, pain, and loss of mobility” (NutraCea, priority 2001, dated 2005).
At least one compound was matched to its structure with a doubt left.

System: carrageenan induced subcutaneous skin inflammation
Test: carrageenan-induced subcutaneous skin inflammation in horses (range finding study)
Assay type: in vivo, Horse

In the case of CCCCC1C(=O)N(c2ccccc2)N(c2ccccc2)C1=O [phenylbutazone], the “reduction in carrageenan-induced inflammation” value (horse, 2 grams phenylbutazone intravenously twice prior to each evaluation, 0.1 mL s.c. 2% carrageenan) is reported as “clinically significant reduction in inflammation” and the “size of swellings (lumps) after carrageenan challenge” value (three horses, i.v. phenylbutazone 1.0 gms per 500 pounds body weight, 0.1 cc 2% carrageenan s.c. in five sites, measured hourly for 7 hours) is reported as “minimal, measurable”.
